Common to all, as to experiment: affinity purification with mass spectrometry
The target in one test is T1, Dcp1-TAP (S. cerevisiae) (UniProt Q12517).
T1 sequence: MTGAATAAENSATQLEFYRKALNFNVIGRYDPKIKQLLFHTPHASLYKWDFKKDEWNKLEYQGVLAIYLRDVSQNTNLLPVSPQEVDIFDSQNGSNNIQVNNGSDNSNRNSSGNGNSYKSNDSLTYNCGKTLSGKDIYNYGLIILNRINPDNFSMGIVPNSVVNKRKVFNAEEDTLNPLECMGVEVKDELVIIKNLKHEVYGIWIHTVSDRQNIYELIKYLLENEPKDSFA

A further test deals with T2, Upf2-TAP (S. cerevisiae) (UniProt P38798).
T2 sequence: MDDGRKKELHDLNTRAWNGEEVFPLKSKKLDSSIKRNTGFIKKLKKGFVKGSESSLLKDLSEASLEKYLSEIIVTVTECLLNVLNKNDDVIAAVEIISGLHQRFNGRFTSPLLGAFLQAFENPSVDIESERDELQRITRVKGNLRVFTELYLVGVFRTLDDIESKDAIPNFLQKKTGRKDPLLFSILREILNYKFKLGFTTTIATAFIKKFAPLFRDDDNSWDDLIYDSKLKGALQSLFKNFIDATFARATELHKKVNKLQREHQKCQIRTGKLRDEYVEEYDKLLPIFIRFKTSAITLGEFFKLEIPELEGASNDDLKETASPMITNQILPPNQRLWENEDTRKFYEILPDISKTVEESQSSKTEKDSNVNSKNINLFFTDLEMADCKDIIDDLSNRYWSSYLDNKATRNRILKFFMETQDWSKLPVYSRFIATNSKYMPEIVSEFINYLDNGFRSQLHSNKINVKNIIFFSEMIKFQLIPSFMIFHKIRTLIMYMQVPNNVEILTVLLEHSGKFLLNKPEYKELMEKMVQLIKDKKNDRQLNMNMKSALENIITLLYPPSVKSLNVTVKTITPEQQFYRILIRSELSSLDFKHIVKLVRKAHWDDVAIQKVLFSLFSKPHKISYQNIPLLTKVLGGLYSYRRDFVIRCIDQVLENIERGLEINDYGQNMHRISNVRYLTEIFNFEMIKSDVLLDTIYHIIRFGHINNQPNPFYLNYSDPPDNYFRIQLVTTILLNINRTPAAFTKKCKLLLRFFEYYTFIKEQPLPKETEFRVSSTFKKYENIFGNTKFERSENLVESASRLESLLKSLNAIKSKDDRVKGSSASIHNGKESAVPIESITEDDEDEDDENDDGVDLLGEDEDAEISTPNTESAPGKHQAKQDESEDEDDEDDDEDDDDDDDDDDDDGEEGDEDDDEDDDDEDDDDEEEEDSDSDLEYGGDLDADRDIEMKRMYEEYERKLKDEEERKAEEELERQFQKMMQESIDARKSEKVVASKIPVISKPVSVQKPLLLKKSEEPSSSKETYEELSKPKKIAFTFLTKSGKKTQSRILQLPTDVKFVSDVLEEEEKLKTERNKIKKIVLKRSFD

For a further test, the target named is T3, Nmd4-TAP (S. cerevisiae) (UniProt Q12129).
T3 sequence: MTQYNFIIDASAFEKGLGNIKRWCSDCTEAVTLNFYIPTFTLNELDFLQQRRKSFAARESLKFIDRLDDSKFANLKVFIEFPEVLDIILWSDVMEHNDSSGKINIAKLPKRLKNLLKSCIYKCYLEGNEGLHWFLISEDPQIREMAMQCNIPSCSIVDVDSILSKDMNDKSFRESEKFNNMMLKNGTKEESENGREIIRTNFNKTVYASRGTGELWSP

In test [1] the target is T4, Hrr25-TAP (S. cerevisiae) (UniProt P29295).
T4 sequence: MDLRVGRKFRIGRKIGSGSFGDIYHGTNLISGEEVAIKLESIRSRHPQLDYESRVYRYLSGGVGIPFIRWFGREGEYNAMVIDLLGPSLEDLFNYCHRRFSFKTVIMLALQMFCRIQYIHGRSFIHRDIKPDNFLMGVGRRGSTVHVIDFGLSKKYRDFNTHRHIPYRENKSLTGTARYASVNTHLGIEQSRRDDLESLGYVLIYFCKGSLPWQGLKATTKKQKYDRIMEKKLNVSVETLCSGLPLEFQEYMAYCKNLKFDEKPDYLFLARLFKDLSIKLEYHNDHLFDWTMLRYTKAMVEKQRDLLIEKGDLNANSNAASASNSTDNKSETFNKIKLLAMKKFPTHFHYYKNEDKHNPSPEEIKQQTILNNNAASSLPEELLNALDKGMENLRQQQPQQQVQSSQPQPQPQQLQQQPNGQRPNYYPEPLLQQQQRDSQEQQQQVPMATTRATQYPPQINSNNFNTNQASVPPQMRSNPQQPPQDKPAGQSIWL

The target of another test is T5, Ebs1-TAP (S. cerevisiae) (UniProt Q03466).
T5 sequence: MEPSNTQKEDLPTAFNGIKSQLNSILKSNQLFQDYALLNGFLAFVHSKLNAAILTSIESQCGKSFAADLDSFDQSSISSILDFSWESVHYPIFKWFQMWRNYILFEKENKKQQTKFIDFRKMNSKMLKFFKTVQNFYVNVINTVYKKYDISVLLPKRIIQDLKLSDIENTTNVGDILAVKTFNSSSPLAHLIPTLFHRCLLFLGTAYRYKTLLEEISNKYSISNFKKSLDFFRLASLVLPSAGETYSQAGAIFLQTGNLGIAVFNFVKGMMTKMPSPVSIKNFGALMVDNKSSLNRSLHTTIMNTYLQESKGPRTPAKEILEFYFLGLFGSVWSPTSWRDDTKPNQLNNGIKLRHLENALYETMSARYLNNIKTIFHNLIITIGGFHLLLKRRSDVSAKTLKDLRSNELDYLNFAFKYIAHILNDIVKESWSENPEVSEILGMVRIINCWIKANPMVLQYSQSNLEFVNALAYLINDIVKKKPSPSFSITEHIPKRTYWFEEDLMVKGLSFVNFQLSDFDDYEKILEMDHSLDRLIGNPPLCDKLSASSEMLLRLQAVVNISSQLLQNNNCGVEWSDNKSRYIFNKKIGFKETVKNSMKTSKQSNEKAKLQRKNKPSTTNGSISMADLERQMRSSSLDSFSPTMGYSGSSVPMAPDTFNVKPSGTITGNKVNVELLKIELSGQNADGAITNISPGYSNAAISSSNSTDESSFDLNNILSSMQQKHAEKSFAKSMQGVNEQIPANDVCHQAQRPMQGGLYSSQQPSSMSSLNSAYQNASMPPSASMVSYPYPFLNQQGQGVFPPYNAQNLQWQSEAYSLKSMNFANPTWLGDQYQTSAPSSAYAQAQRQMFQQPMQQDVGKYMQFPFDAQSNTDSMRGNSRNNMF

The target of the next test is T6, Upf3-TAP (S. cerevisiae) (UniProt P48412).
T6 sequence: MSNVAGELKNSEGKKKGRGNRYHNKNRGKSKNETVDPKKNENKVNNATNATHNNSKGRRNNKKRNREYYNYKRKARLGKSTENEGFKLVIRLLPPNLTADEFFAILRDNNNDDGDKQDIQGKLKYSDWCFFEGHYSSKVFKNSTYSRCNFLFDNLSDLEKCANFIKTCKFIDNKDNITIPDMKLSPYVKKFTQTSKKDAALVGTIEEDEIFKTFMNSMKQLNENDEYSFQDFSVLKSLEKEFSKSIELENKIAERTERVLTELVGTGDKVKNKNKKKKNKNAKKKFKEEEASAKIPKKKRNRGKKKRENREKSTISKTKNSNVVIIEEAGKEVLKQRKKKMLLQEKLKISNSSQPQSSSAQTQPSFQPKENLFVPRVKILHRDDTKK

Results are given in words; binding and its absence hold for the method and conditions named. In cells and extracts the contact can be indirect. Here binding means that the protein was enriched with, or labelled near, the bait; the list need not be complete. For some of these results: A no says only that the protein was not detected with the bait.

B1: Upf3 (protein, UniProt P48412 1-387)
chain: MSNVAGELKNSEGKKKGRGNRYHNKNRGKSKNETVDPKKNENKVNNATNATHNNSKGRRNNKKRNREYYNYKRKARLGKSTENEGFKLVIRLLPPNLTADEFFAILRDNNNDDGDKQDIQGKLKYSDWCFFEGHYSSKVFKNSTYSRCNFLFDNLSDLEKCANFIKTCKFIDNKDNITIPDMKLSPYVKKFTQTSKKDAALVGTIEEDEIFKTFMNSMKQLNENDEYSFQDFSVLKSLEKEFSKSIELENKIAERTERVLTELVGTGDKVKNKNKKKKNKNAKKKFKEEEASAKIPKKKRNRGKKKRENREKSTISKTKNSNVVIIEEAGKEVLKQRKKKMLLQEKLKISNSSQPQSSSAQTQPSFQPKENLFVPRVKILHRDDTKK
Turning to B1, the binding entry in the test with Dcp1-TAP (S. cerevisiae) was “no binding”; with Upf2-TAP (S. cerevisiae) it was “binds”; with Nmd4-TAP (S. cerevisiae), “no binding”; in test [1], “no binding”; in the test with Ebs1-TAP (S. cerevisiae) it was “no binding”.

B2: Upf2 (protein, UniProt P38798 1-1089)
chain: MDDGRKKELHDLNTRAWNGEEVFPLKSKKLDSSIKRNTGFIKKLKKGFVKGSESSLLKDLSEASLEKYLSEIIVTVTECLLNVLNKNDDVIAAVEIISGLHQRFNGRFTSPLLGAFLQAFENPSVDIESERDELQRITRVKGNLRVFTELYLVGVFRTLDDIESKDAIPNFLQKKTGRKDPLLFSILREILNYKFKLGFTTTIATAFIKKFAPLFRDDDNSWDDLIYDSKLKGALQSLFKNFIDATFARATELHKKVNKLQREHQKCQIRTGKLRDEYVEEYDKLLPIFIRFKTSAITLGEFFKLEIPELEGASNDDLKETASPMITNQILPPNQRLWENEDTRKFYEILPDISKTVEESQSSKTEKDSNVNSKNINLFFTDLEMADCKDIIDDLSNRYWSSYLDNKATRNRILKFFMETQDWSKLPVYSRFIATNSKYMPEIVSEFINYLDNGFRSQLHSNKINVKNIIFFSEMIKFQLIPSFMIFHKIRTLIMYMQVPNNVEILTVLLEHSGKFLLNKPEYKELMEKMVQLIKDKKNDRQLNMNMKSALENIITLLYPPSVKSLNVTVKTITPEQQFYRILIRSELSSLDFKHIVKLVRKAHWDDVAIQKVLFSLFSKPHKISYQNIPLLTKVLGGLYSYRRDFVIRCIDQVLENIERGLEINDYGQNMHRISNVRYLTEIFNFEMIKSDVLLDTIYHIIRFGHINNQPNPFYLNYSDPPDNYFRIQLVTTILLNINRTPAAFTKKCKLLLRFFEYYTFIKEQPLPKETEFRVSSTFKKYENIFGNTKFERSENLVESASRLESLLKSLNAIKSKDDRVKGSSASIHNGKESAVPIESITEDDEDEDDENDDGVDLLGEDEDAEISTPNTESAPGKHQAKQDESEDEDDEDDDEDDDDDDDDDDDDGEEGDEDDDEDDDDEDDDDEEEEDSDSDLEYGGDLDADRDIEMKRMYEEYERKLKDEEERKAEEELERQFQKMMQESIDARKSEKVVASKIPVISKPVSVQKPLLLKKSEEPSSSKETYEELSKPKKIAFTFLTKSGKKTQSRILQLPTDVKFVSDVLEEEEKLKTERNKIKKIVLKRSFD
Regarding B2, the binding result in the test with Dcp1-TAP (S. cerevisiae) is on record as “no binding”; with Nmd4-TAP (S. cerevisiae) it was “no binding”; with Upf3-TAP (S. cerevisiae), “binds”; in test [1] it was “no binding”; with Ebs1-TAP (S. cerevisiae) it was “no binding”.

These data come from doi:10.1101/266833.
